Test results: patent US20230143091A1 (SORRISO PHARMACEUTICALS, published 2023)
These are yes or no findings as the source states them, for the method shown. Some entries that bind do so weakly or less than the wild type.

Protein sequences, listed by entry. Tags and fused reporters are not part of them. Residues count along the entry.
UniProt P01375, residues 77-233: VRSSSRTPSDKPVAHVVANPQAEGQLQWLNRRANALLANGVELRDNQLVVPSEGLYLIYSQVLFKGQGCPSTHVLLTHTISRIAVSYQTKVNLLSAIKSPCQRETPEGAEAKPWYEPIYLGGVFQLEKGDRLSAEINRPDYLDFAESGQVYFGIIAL

T1: IL-7R (as used in the IL-7/IL-7R neutralisation ELISA) (UniProt P16871)
T1 sequence (looked up): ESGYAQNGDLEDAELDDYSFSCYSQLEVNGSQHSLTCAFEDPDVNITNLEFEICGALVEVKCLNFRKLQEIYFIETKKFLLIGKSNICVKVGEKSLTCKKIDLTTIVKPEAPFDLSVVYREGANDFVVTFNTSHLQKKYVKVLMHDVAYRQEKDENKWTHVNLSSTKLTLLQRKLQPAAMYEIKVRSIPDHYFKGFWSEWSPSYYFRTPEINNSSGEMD


Assays:
[1] = molecular target: T1, IL-7R (as used in the IL-7/IL-7R neutralisation ELISA); assay: IL-7/IL-7R neutralisation ELISA; blocked ligand IL-7, bound IL-7 detected with biotinylated anti-hIL-7 and Extravidin-HRP
[2] = molecular target: T1, IL-7R (as used in the IL-7/IL-7R neutralisation ELISA); assay: IL-7/IL-7R ELISA, before trypsin treatment
human TNFα [3] = molecular target: T2, human TNFα (human, UniProt P01375 77-233); assay: competition ELISA on coated human TNFα; competitor biotinylated adalimumab; before trypsin
T2 construct: also called TNF-alpha; Tumour necrosis factor-alpha

human TNFα [4] = molecular target: T2, human TNFα; assay: competition ELISA on plate-coated human TNFα; competitor 2 nM biotinylated adalimumab, detected with ExtrAvidin-HRP
Description: ELISA plates were coated with 100 ng/mL human TNFα in 250 μg/mL bovine serum albumin (BSA) in phosphate buffered saline (1×PBS) and blocked with 1% BSA in 1×PBS.

[5] = molecular target: T1, IL-7R (as used in the IL-7/IL-7R neutralisation ELISA); assay: IL-7/IL-7R ELISA, reference monomer

binding [1]	binding [2]	binding (human TNFα [3])	binding (human TNFα [4])	binding [5]	Binder
binds	binds	binds	binds	–	FU3K bihead (bispecific antibody, Produced in S. cerevisiae; also called pre-digestion FU3K; heterobihead) DVQLVESGGGLVQPGGSLKLSCAASGFDFSSHWMYWVRQAPGKELEWLSEINTNGLITHYGDSVKGRFTVSRNNAANKMYLELTRLEPEDTALYYCARNQHGLNKGQGTQVTVSSGGGGSGGGGSKGGGGSGGGGSEVQLVESGGGLVQAGGSLRLSCESSISTFSSDAMGWFRQAPGKELEFLAAIGWSGAVTHYSDSVKGRFTISRDNAKNTVYLQMNSLRAEDTGRYYCAEDYDTDVWQYWGQGTQVTVSS
binds	–	–	–	binds	ID-A62U (VHH, Produced in S. cerevisiae; Comprises E1D and R45L mutations relative to ID-A40U) VHH: DVQLVESGGGLVQAGGSLRLSCESSISTFSSDAMGWFRQAPGKELEFLAAIGWSGAVTHYSDSVKGRFTISRDNAKNTVYLQMNSLRAEDTGRYYCAEDYDTDVWQYWGQGTQVTVSS
